Measurements: paper PMC6952393

Chains of the proteins cited; added tags and fusions are not shown.
UniProt O43242: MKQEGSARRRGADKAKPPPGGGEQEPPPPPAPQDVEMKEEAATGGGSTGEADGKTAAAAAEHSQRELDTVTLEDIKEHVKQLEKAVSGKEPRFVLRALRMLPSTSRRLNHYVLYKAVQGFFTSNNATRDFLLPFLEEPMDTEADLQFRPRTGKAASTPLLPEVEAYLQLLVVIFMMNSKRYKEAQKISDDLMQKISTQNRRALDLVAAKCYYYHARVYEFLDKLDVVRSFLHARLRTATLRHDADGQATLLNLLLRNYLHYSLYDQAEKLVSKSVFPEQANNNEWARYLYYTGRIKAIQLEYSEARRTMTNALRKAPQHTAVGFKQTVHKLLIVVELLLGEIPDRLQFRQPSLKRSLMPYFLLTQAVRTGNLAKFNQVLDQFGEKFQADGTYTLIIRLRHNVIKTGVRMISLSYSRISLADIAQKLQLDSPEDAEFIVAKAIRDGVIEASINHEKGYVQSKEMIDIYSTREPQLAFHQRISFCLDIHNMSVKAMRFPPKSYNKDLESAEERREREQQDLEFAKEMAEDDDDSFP
UniProt O75340: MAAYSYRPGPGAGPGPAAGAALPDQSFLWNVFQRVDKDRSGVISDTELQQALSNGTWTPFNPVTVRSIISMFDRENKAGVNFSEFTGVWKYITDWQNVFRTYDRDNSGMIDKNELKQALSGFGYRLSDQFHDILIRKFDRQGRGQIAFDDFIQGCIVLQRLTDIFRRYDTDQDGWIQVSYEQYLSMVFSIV

Biological target: GST-Rpn3 (human) (UniProt O43242)
Test: affinity purification with mass spectrometry; Jurkat cells infected with GST-Rpn3 or GST retrovirus for 72 h; lysate on Glutathione Sepharose beads overnight at 4 °C, washed with PBS; LC-MS/MS

binding: binds
Substance: Apoptosis-linked gene 2 (ALG-2), endogenous in Jurkat cells (from UniProt O75340 1-191)

Results are given in words; binding and its absence hold for the method and conditions named. Binding seen in cells or lysates may run through a third protein. These calls come from enrichment with a bait or labelling near it, and not all partners need be listed.
